Results published in US20260250402A1 (C O INMAGENE PTE, published 2026).
No constants are given. Whether binding was seen depends on the method and setting. Some binding calls cover weakened binding; strength is not graded here. For some of these results: Tags and fused reporters may be left off the sequences shown.

T1: Human his-tag IL-7Ra protein (human, UniProt P16871 21-239)
T1 construct: Construct not described; Position of the tag unknown; also called IL-7Ra (Biacore analyte); not shown: his tag
T1 sequence: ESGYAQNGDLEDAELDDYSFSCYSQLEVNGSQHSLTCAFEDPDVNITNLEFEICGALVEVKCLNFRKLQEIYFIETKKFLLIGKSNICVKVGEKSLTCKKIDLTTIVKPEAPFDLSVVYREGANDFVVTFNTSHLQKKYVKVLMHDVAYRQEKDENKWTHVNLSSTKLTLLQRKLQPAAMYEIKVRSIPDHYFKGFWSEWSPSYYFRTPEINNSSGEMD

T2: cynomolgus Fc-tag IL-7Ra protein (cynomolgus, UniProt Q38IC7 21-240)
T2 construct: also called cynomolgus IL-7Ra protein; not shown: Fc tag
T2 sequence: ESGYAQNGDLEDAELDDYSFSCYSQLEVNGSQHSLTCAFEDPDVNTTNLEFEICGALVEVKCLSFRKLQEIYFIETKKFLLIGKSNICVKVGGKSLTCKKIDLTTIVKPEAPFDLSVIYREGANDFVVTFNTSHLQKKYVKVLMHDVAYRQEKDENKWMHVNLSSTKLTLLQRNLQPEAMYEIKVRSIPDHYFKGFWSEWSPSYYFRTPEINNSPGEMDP

T3: human Fc-tag IL-7Ra protein (human, UniProt P16871 21-239)
T3 construct: also called human IL-7Ra protein; not shown: Fc tag fused to the N-terminus
T3 sequence: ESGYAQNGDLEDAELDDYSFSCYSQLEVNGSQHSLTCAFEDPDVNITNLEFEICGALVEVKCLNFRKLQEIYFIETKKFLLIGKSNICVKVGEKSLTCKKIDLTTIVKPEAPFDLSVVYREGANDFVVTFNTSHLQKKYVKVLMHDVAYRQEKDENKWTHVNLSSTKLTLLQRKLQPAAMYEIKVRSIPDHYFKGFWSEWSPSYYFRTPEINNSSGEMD


How the values were obtained:
[1] = target: T1, Human his-tag IL-7Ra protein; experiment: SPR Biacore 8K, antibody Fc-captured, human his-tag IL-7Ra analyte
[2] = target: T2, cynomolgus Fc-tag IL-7Ra protein; experiment: ELISA, cynomolgus Fc-tag IL-7Ra protein, HRP-labelled secondary antibody, OD 450 (right panel)
[3] = target: T3, human Fc-tag IL-7Ra protein; experiment: ELISA, plate-coated Fc-tag IL-7Ra protein
[4] = target: T2, cynomolgus Fc-tag IL-7Ra protein; experiment: ELISA, plate-coated Fc-tag IL-7Ra protein
[5] = target: T3, human Fc-tag IL-7Ra protein; experiment: ELISA, plate coated with human Fc-tag IL-7Ra protein, HRP-labelled secondary antibody, OD 450 (left panel)
[6] = target: human IL-7Ra expressed on CHOK1-human IL-7Ra cells (human) (UniProt P16871); experiment: flow cytometry blocking assay: binding of hIL-7-his to CHOK1-human IL-7Ra cells in the presence of the antibody, MFI (left panel)
[7] = target: human IL-7Ra expressed on CHOK1-human IL-7Ra cells (human) (UniProt P16871); experiment: flow cytometry, CHOK1-human IL-7Ra cells
[8] = target: cynomolgus IL-7Ra expressed on CHOK1-cyno IL-7Ra cells (cynomolgus) (UniProt Q38IC7); experiment: flow cytometry, CHOK1-cyno IL-7Ra cells
[9] = target: human IL-7Ra expressed on CHOK1-human IL-7Ra cells (human) (UniProt P16871); experiment: flow cytometry on CHOK1-human IL-7Ra cells, MFI (upper left panel)
[10] = target: human IL-7Ra expressed on CHOK1-human IL-7Ra cells (human) (UniProt P16871); experiment: flow cytometry blocking assay: binding of hIL-7-his to CHOK1-human IL-7Ra cells in the presence of the antibody, MFI (right panel)
[11] = target: cynomolgus IL-7Ra expressed on CHOK1-cyno IL-7Ra cells (cynomolgus) (UniProt Q38IC7); experiment: flow cytometry on CHOK1-cyno IL-7Ra cells, MFI (upper right panel)
[12] = target: human IL-7Ra expressed on CHOK1-human IL-7Ra cells (human) (UniProt P16871); experiment: flow cytometry blocking assay: binding of hIL-7-his (0.1 ug/ml) to CHOK1-human IL-7Ra cells in the presence of the antibody, anti-His Alexa Fluor 488, MFI (left panel)

binding [1]	binding [2]	binding [4]	Binder	other results
binds			HuAb013 (antibody, V domains shown, Humanized version of cmAb011; also called humanized VL1 / humanized VH4) VH: QVQLVQSGAEVKKPGASVKVSCKASGYRFTDYELHWVRQAPGQGLEWMGGIDPKTGGTAYNQKFKGKVTLTSDRSTSTVYMELSSLRSEDTAVYYCARSGGRWYFDVWGQGTTVTVSS VL: DIVLTQSPASLAVSPGQRATITCRTSESVSIHLLHLMHWYQQKPGQPPKLLIYGASNLESGVPARFSGSGSGTDFTLTINPVEAEDTANYYCQQSIKDPYTFGGGTKVEIK	
	binds	binds	OSE127 (Tab2) (antibody, human IgG4 S228P, kappa, V domains shown, also called benchmark antibody OSE127) VH: QVQLVESGGGLVKPGGSLRLSCAVSGFTLSDYYMAWIRQAPGKGLEWVSTISASGLRTYYPDSVKGRFTISRDNAKNSLYLQMNSLRAEDTAVYYCARPLSAHYGFNYFDYWGQGTLVTVSS VL: DIQMTQSPSSLSASVGDRVTITCRTSEDIYQGLAWYQQKPGKAPKLLLYSANTLHIGVPSRFSGSGSGTDYTLTISSLQPEDFATYYCQQYYDYPLAFGGGTKVEIKR	
binds	binds	binds	cmAb011 (chimeric Ab011) (antibody, V domains shown, also called chimeric antibody Ab011) VH: QVQLQQSGAELMRPGASVTLSCKTSGYRFTDYELHWVKQTPVRGLEWIGGIDPKTGGTAYNQKFKGKAILTSDRSSSTTYMELRSLASEDSAVYYCTRSGGRWYFDVWGTGTTVTVSS VL: DIVLTQSPASLAVSLGQRATISCRTSESVSIHLLHLMHWYQQKPGQPPKLLIYGASNLESGVPARFSGSGSETDFTLNIHPVEEEDAATYFCQQSIKDPYTFGGGTKLEIKR	binding [6]: binds; binding [7]: binds; binding [8]: binds; binding [9]: binds; binding [3]: binds; binding [10]: binds; binding [5]: binds; binding [11]: binds; binding [12]: binds

Continued, binder first:

Binder	binding [1]	binding [2]	binding [4]	other results
HuAb003 (antibody, V domains shown, Humanized version of cmAb011; also called humanized VL3 / humanized VH1) VH: QVQLVQSGAEVKKPGASVKVSCKASGYRFTDYELHWVRQAPGQGLEWMGGIDPKTGGTAYNQKFKGRVTMTRDTSTSTVYMELSSLRSEDTAVYYCARSGGRWYFDVWGQGTTVTVSS VL: DIVMTQSPDSLAVSLGERATINCRTSESVSIHLLHLMHWYQQKPGQPPKLLIYGASNLESGVPDRFSGSGSGTDFTLTISSLQAEDVAVYYCQQSIKDPYTFGGGTKVEIK	binds			
HuAb004 (antibody, V domains shown, Humanized version of cmAb011; also called humanized VL4 / humanized VH1) VH: QVQLVQSGAEVKKPGASVKVSCKASGYRFTDYELHWVRQAPGQGLEWMGGIDPKTGGTAYNQKFKGRVTMTRDTSTSTVYMELSSLRSEDTAVYYCARSGGRWYFDVWGQGTTVTVSS VL: DIVLTQSPDSLAVSLGERATINCRTSESVSIHLLHLMHWYQQKPGQPPKLLIYGASNLESGVPDRFSGSGSETDFTLTISSLQAEDVAVYYCQQSIKDPYTFGGGTKVEIK	binds			
HuAb005 (antibody, V domains shown, Humanized version of cmAb011; also called humanized VL1 / humanized VH2) VH: QVQLVQSGAEVKKPGASVKVSCKASGYRFTDYELHWVRQAPGQGLEWMGGIDPKTGGTAYNQKFKGRVTMTSDRSTSTVYMELSSLRSEDTAVYYCARSGGRWYFDVWGQGTTVTVSS VL: DIVLTQSPASLAVSPGQRATITCRTSESVSIHLLHLMHWYQQKPGQPPKLLIYGASNLESGVPARFSGSGSGTDFTLTINPVEAEDTANYYCQQSIKDPYTFGGGTKVEIK	binds			
HuAb008 (antibody, V domains shown, Humanized version of cmAb011; also called humanized VL4 / humanized VH2) VH: QVQLVQSGAEVKKPGASVKVSCKASGYRFTDYELHWVRQAPGQGLEWMGGIDPKTGGTAYNQKFKGRVTMTSDRSTSTVYMELSSLRSEDTAVYYCARSGGRWYFDVWGQGTTVTVSS VL: DIVLTQSPDSLAVSLGERATINCRTSESVSIHLLHLMHWYQQKPGQPPKLLIYGASNLESGVPDRFSGSGSETDFTLTISSLQAEDVAVYYCQQSIKDPYTFGGGTKVEIK	binds			
HuAb009 (antibody, V domains shown, Humanized version of cmAb011; also called humanized VL1 / humanized VH3) VH: QVQLVQSGAEVKKPGASVKVSCKASGYRFTDYELHWVKQAPGQGLEWIGGIDPKTGGTAYNQKFKGRVTMTSDRSTSTVYMELSSLRSEDTAVYYCARSGGRWYFDVWGQGTTVTVSS VL: DIVLTQSPASLAVSPGQRATITCRTSESVSIHLLHLMHWYQQKPGQPPKLLIYGASNLESGVPARFSGSGSGTDFTLTINPVEAEDTANYYCQQSIKDPYTFGGGTKVEIK	binds			
ADX-914 (Tab1) (antibody, human IgG1, kappa, V domains shown, also called benchmark antibody ADX-914) VH: EVQLVESGGGLVQPGRSLRLSCAASGFTFDDHAMHWVRQAPGKGLEWVSGISWNSRGIGYADSVKGRFTIFRDNAKNSLYLQMNSLRAEDTALYYCAKDEYSRGYYVLDVWGQGTTVTVSS VL: AIQLTQSPSSLSASVGDRVTITCRASQGISSALAWYQQKPGKAPKLLIYDASSLESGVPSRFSGSGSGTDFTLTISSLQPEDFATYYCQQFNSYPLWITFGQGTRLEIKR	binds	binds	binds	binding [3]: binds; binding [5]: binds
